Results deposited as PubChem BioAssay AID1224830 (NIAID, 2016)
Here is an unselected part of about 18,000 reagents tested. Over the whole deposit, about 2,900 (16%) were called active. 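Calls are made per well; low scores hint the gene aids the LPS response, high scores that it dampens it.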 Entries without a mark were called inactive. Repeated entries: four replicate wells of each siRNA pool.

- Assay: 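Host factors that control LPS-induced TNF expression in human macrophages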 (primary screen)
- Cells: human THP-1 monocytic leukaemia cells, TNF dual-luciferase reporter clone, PMA-differentiated to macrophage-like cells
- Reagents: siRNA pool against human genes, 50 nM
- Time to read-out: LPS for 4 h, given about 3 days after siRNA transfection
- Treatment: bacterial LPS (TLR4 ligand), 10 ng/ml
- Measured: 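Ratio of firefly to renilla light, scaled to the plate median and expressed as a robust z-score per replicate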
- Reading the numbers: TNF reporter robust z-score: higher = stronger TNF reporter response to LPS
- Active means: 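Each well counts as active if its z-score is over 2.8 or under -1.5; controls are left without a call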

gene	TNF reporter robust z-score
ACTRT2	0.07
ACTRT2	-1.41
ACTRT2	-1.67 (active)
ACTRT2	-0.62
TIMM10	-1.12
TIMM10	-0.78
TIMM10	-1
TIMM10	-1.05
CCR7	0.33
CCR7	0.5
CCR7	0.83
CCR7	0.92
DHRS4	1.69
DHRS4	1.29
DHRS4	-0.39
DHRS4	-0.07
LRRC43	-0.13
LRRC43	0.83
LRRC43	0.19
LRRC43	0.72
DCLK2	1.77
DCLK2	0.21
DCLK2	0.08
DCLK2	1.3
FCRL1	1.52
FCRL1	0.39
FCRL1	1.66
FCRL1	0.19
MRPS26	-1.08
MRPS26	-0.85
MRPS26	-0.82
MRPS26	-0.74
PPIL3	-1.09
PPIL3	-1.36
PPIL3	-1.16
PPIL3	-1.12
ACP6	-0.61
ACP6	0.35
ACP6	0.26
ACP6	0.15
SMIM15	0.04
SMIM15	0.66
SMIM15	0.22
SMIM15	0.09
LPP	-0.49
LPP	-0.71
LPP	0.03
LPP	-0.33
STX10	0.25
STX10	-0.02
STX10	-0.26
STX10	-0.28
CCDC190	0.4
CCDC190	-0.28
CCDC190	-0.34
CCDC190	0.47
CDCA7L	-0.77
CDCA7L	-1.05
CDCA7L	-1.17
CDCA7L	-0.52
PPP1R3F	-1.29
PPP1R3F	-0.91
PPP1R3F	-0.87
PPP1R3F	-1.11
LINC00518	-1.29
LINC00518	-0.92
LINC00518	-1.62 (active)
LINC00518	-0.83
RARS1	-1.16
RARS1	-0.29
RARS1	-0.81
RARS1	-0.88
TAB1	0.45
TAB1	1.73
TAB1	-1.21
TAB1	-0.34
DHX36	-0.63
DHX36	0.09
DHX36	-0.45
DHX36	-0.46
PRAC1	0
PRAC1	0.39
PRAC1	-1.48
PRAC1	-1.13

15 entries from above, set out differently.
{"gene":"LPP","TNF reporter robust z-score":-0.49}
{"gene":"LPP","TNF reporter robust z-score":-0.71}
{"gene":"LPP","TNF reporter robust z-score":0.03}
{"gene":"LPP","TNF reporter robust z-score":-0.33}
{"gene":"STX10","TNF reporter robust z-score":0.25}
{"gene":"STX10","TNF reporter robust z-score":-0.02}
{"gene":"STX10","TNF reporter robust z-score":-0.26}
{"gene":"STX10","TNF reporter robust z-score":-0.28}
{"gene":"CCDC190","TNF reporter robust z-score":0.4}
{"gene":"CCDC190","TNF reporter robust z-score":-0.28}
{"gene":"CCDC190","TNF reporter robust z-score":-0.34}
{"gene":"CCDC190","TNF reporter robust z-score":0.47}
{"gene":"CDCA7L","TNF reporter robust z-score":-0.77}
{"gene":"CDCA7L","TNF reporter robust z-score":-1.05}
{"gene":"CDCA7L","TNF reporter robust z-score":-1.17}

Next reagents follow:
gene	TNF reporter robust z-score
EXD3	0.46
EXD3	1.7
EXD3	-0.26
EXD3	0.27
SNRPB	-0.3
SNRPB	-0.56
SNRPB	-0.82
SNRPB	-1.93 (active)
ABCF3	1.54
ABCF3	1.96
ABCF3	0.74
ABCF3	0.31
HAVCR1	-0.89
HAVCR1	-0.77
HAVCR1	-0.37
HAVCR1	-0.41
ASIC1	0.27
ASIC1	-0.25
ASIC1	-0.1
ASIC1	-0.31
HNRNPR	1.23
HNRNPR	0.32
HNRNPR	0.17
HNRNPR	1.28
ODAD3	-0.63
ODAD3	-0.01
ODAD3	0.1
ODAD3	-0.14
IL13	-0.31
IL13	0.24
IL13	0.11
IL13	0.14
CEP126	-0.74
CEP126	0
CEP126	0.14
CEP126	-0.38
OTUB2	0.51
OTUB2	0.65
OTUB2	-0.08
OTUB2	1.35
OR5B3	-0.3
OR5B3	-0.8
OR5B3	-1.45
OR5B3	-0.36
RAB6C	0.21
RAB6C	1.06
RAB6C	-0.3
RAB6C	0.61
FKBP1B	-1.13
FKBP1B	-0.44
FKBP1B	-0.74
FGD3	-0.98
FGD3	-0.47
FGD3	-0.55
FGD3	-0.46
DCLK1	0.14
DCLK1	0.55
DCLK1	-0.52
DCLK1	0.25
